Results published in patent US20220088193A1 (AGONOX, published 2022).
Where a chain is given by its changes, count along the chain named. These are yes or no findings as the source states them, for the method shown. Some entries that bind do so weakly or less than the wild type.

Protein sequences, listed by entry. Tags and fused reporters are not part of them. Lines headed by an entry give the natural chain unless they say otherwise; changes in a name come on top.
UniProt P08174: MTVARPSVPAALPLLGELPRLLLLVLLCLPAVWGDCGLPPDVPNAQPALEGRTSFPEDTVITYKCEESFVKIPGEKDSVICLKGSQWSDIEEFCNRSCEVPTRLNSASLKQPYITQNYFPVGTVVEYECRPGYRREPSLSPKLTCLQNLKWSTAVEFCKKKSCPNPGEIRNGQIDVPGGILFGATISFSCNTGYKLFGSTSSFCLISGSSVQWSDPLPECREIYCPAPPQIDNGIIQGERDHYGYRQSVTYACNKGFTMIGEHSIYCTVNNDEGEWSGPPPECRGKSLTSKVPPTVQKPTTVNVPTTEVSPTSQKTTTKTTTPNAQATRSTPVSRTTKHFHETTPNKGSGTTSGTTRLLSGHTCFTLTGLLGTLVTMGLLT

T1: mouse CD55 (mouse, UniProt Q61475 35-362, limits assumed)
T1 sequence (looked up): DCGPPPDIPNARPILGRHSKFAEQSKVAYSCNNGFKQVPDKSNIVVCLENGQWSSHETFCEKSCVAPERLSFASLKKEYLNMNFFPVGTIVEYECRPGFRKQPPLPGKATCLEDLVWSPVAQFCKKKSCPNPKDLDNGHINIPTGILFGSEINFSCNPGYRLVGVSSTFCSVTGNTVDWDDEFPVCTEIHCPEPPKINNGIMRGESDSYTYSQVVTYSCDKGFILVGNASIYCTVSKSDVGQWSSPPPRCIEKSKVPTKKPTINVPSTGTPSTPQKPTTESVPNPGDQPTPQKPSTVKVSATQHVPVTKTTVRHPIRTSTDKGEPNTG

B1: P5-4 (antibody, V domains shown)
VH: EVQLVESGGGLVQPGGSLRLSCAASGFTFSSYYIHWVRQAPGKGLEWVAAISSSSGSTYYADSVKGRFTISADTSKNTAYLQMNSLRAEDTAVYYCAREDYYWGDFVFDYWGQGTLVTVSS
VL: DIQMTQSPSSLSASVGDRVTITCRASQSVSSAVAWYQQKPGKAPKLLIYSASSLYSGVPSRFSGSRSGTDFTLTISSLQPEDFATYYCQQYYSSPLTFGQGTKVEIKR
B2: P5-2-2A (antibody, V domains shown)
VH: B1 VH with D100A, Y101R, Y102F, W103H, V107I, F108L
VL: B1 VL with S93I, S94T
B3: P5-1 (antibody, V domains shown)
VH: B1 VH with D100R, Y102F, W103Y
VL: B1 VL
B4: P5-1J (antibody, V domains shown)
VH: EVQLVESGGGLVQPGGSLRLSCAASGFTFSHHYIHWVRQAPGKGLEWVAAISTGGGTTYYADSVKGRFTISADTSKNTAYLQMNSLRAEDTAVYYCARERYFNGDFIYDYWGQGTLVTVSS
VL: B1 VL with S94T
notes: also called biotinylated P5-1J; unlabeled P5-1J

What follows are binders tested against Plate-bound CD55 (Homo sapiens (Human)) (UniProt P08174) (assay: competition ELISA; unlabeled antibody pre-bound to plate-bound CD55).

binding, binds:
B1, B2

What follows are binders tested against T1, mouse CD55 (assay: screening of human antibody libraries).

binding, binds:
B3, B1, B2

These binders were tested against T1, mouse CD55 (assay: library screen, species specificity summary).

binding, binds:
B3, B1, B2, B4
